Results reported in ChEMBL document CHEMBL1157633, “Prediction and evaluation of protein farnesyltransferase inhibition by commercial drugs” (J Med Chem, 2010).
pIC50: −log10 of the molar value.

Assay: Inhibition of protein farnesyltransferase by continuous fluorescence assay

SMILES	pIC50
Clc1ccc(COC(Cn2ccnc2)c2ccc(Cl)cc2Cl)cc1 (configuration not stated) [ECONAZOLE]	4.63
Clc1ccc(COC(Cn2ccnc2)c2ccc(Cl)cc2Cl)c(Cl)c1 (configuration not stated) [MICONAZOLE]	4.72
